Assay results: US20120114745A1, “METHOD FOR TREATING OR AMELIORATING MUCOCUTANEOUS OR OCULAR TOXICITIES” (priority 2009, published 2012)
For at least one compound, name, drawing or mass did not settle the structure.

System: BALB/c male mice
Test: EGFR inhibitor-augmented skin reaction test (DNFB irritation, ear swelling and histology)
Type: in vivo

## C[C@@H]1C[C@H]2[C@@H]3CCC4=CC(=O)C=C[C@]4(C)[C@@]3(F)[C@@H](O)C[C@]2(C)[C@@]1(O)C(=O)CO [dexamethasone]
0.3 mg topical, 60 minutes before and 15 minutes after DNFB, 3, 6 and 8 hours after DNFB irritation
  EGFR inhibitor-augmented skin reaction: did not suppress
0.3 mg topical, 60 minutes before and 15 minutes after DNFB, 24 hours after DNFB irritation
  EGFR inhibitor-augmented skin swelling: significantly suppressive effect
24 hours after DNFB irritation
  suppressive extent on the skin swelling, compared with phenylbutyrate: larger than that by phenylbutyrate
